These results are taken from PMC5539112.

Sequences of proteins named here, by UniProt entry; tags and fusion partners are left off.
UniProt O43734: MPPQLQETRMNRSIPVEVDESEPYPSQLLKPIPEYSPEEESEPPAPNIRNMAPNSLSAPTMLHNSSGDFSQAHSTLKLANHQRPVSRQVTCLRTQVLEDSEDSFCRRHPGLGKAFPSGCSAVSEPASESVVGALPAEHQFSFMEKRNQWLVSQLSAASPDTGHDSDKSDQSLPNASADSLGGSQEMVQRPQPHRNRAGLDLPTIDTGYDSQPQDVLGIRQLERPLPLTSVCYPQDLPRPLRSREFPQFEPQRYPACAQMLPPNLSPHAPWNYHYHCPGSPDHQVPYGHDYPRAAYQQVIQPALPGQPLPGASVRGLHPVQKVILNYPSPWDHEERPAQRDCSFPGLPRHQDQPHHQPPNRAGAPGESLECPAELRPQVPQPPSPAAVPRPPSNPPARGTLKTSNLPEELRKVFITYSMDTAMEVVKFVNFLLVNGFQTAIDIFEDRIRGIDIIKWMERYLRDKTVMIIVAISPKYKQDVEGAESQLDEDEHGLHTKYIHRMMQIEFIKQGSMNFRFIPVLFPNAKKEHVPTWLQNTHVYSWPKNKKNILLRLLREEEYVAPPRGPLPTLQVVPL
UniProt P62993: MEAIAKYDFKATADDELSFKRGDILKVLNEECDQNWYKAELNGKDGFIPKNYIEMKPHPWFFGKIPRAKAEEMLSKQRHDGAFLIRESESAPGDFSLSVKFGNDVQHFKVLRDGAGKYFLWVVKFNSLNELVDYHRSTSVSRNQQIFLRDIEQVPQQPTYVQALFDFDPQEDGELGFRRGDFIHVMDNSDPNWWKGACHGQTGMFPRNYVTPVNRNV

Results are given in words; binding and its absence hold for the method and conditions named. Binding seen in cells or lysates may run through a third protein. Some entries that bind do so weakly or less than the wild type.

For this assay, the target named is Act1 (human (endogenous in primary FLS cells)) (UniProt O43734). Description: co-IP; whole cell lysates of human primary FLS cells left untreated or treated with FGF2 (50 ng/ml) for the indicated times; immunoprecipitated with anti-Act1 (0.5 ug) and protein A beads overnight at 4 °C, washed four times with lysis buffer, immunoblotted.

As for Grb2 (from UniProt P62993 1-217), the binding result is “binds”.
